No constants are given. Whether binding was seen depends on the method and setting. In cells and extracts the contact can be indirect. Some entries that bind do so weakly or less than the wild type. Each block holds one binder with its values, some of them ahead of it.
Key:
[1] = target: Tm-2^2 NB-ARC (D481V) (tomato) (UniProt Q71BG9); assay: co-IP; isolated domains with HA or Myc tag co-expressed in N. benthamiana, no MP; IP with anti-Myc beads; blot anti-HA
[2] = target: Tm-2^2 NB-ARC (D481V, L246A) (tomato) (UniProt Q71BG9); assay: as above
[3] = target: Tm-2^2 NB-ARC (D481V, L233A) (tomato) (UniProt Q71BG9); assay: as above
[4] = target: Tm-2^2 NB-ARC (D481V, L242A) (tomato) (UniProt Q71BG9); assay: as above
[5] = target: Tm-2^2 CC-NB-ARC (D481V, L246A)-Rop (tomato) (UniProt Q71BG9); assay: co-IP; Myc-Rop and YFP-Rop tagged (plasma-membrane tethered) copies co-expressed in pair in N. benthamiana; IP with anti-GFP beads; blot anti-Myc
Tm-2^2 (D481V) (tomato) = Tm-2^2 (D481V) (tomato) (UniProt Q71BG9); assay: co-IP; Myc- and HA-tagged copies of full-length Tm-2^2 (or D481V) co-expressed WITHOUT TMV MP in N. benthamiana; IP with anti-Myc beads; blot anti-HA
Tm-2^2 (L242A) (tomato) = Tm-2^2 (L242A) (tomato) (UniProt Q71BG9); assay: co-IP; Myc- and HA-tagged copies of full-length Tm-2^2 (or mutant) co-expressed WITH TMV MP-YFP (GenBank BAF93925.1) in N. benthamiana; leaves collected at 22-24 hpi; IP with anti-Myc beads, 3 h at 4°C, IP buffer 25 mM Tris-HCl pH 7.5, 150 mM NaCl, 1 mM EDTA, 10% glycerol, 10 mM DTT, 0.2-0.5% NP-40; blot anti-HA
Tm-2^2 (L233A) (tomato) = Tm-2^2 (L233A) (tomato) (UniProt Q71BG9); assay: as above

binding [1]: binds
B1: Tm-2^2 NB-ARC (D481V) (domain or fragment, UniProt Q71BG9 141-492)
chain: VLLDRRRLFLHADETEIIGLDDDFNMLQAKLLNQDLHYGVVSIVGMPGLGKTTLAKKLYRLIRDQFECSGLVYVSQQPRASEILLDIAKQIGLTEQKMKENLEDNLRSLLKIKRYVILLDDIWDVEIWDDLKLVLPECDSKVGSRMIITSRNSNVGRYIGGESSLHALQPLESEKSFELFTKKIFNFDDNNSWANASPDLVNIGRNIVGRCGGIPLAIVVTAGMLRARERTEHAWNRVLESMGHKVQDGCAKVLALSYNDLPIASRPCFLYFGLYPEDHEIRAFDLINMWIAEKFIVVNSGNRREAEDLAEDVLNDLVSRNLIQLAKRTYNGRISSCRIHVLLHSLCVDLAK

binding [2]: binds
B2: Tm-2^2 NB-ARC (D481V, L246A) (domain or fragment, UniProt Q71BG9 141-492)
chain: VLLDRRRLFLHADETEIIGLDDDFNMLQAKLLNQDLHYGVVSIVGMPGLGKTTLAKKLYRLIRDQFECSGLVYVSQQPRASEILLDIAKQIGLTEQKMKENLEDNARSLLKIKRYVILLDDIWDVEIWDDLKLVLPECDSKVGSRMIITSRNSNVGRYIGGESSLHALQPLESEKSFELFTKKIFNFDDNNSWANASPDLVNIGRNIVGRCGGIPLAIVVTAGMLRARERTEHAWNRVLESMGHKVQDGCAKVLALSYNDLPIASRPCFLYFGLYPEDHEIRAFDLINMWIAEKFIVVNSGNRREAEDLAEDVLNDLVSRNLIQLAKRTYNGRISSCRIHVLLHSLCVDLAK

binding [3]: binds
B3: Tm-2^2 NB-ARC (D481V, L233A) (domain or fragment, UniProt Q71BG9 141-492)
chain: VLLDRRRLFLHADETEIIGLDDDFNMLQAKLLNQDLHYGVVSIVGMPGLGKTTLAKKLYRLIRDQFECSGLVYVSQQPRASEILLDIAKQIGATEQKMKENLEDNLRSLLKIKRYVILLDDIWDVEIWDDLKLVLPECDSKVGSRMIITSRNSNVGRYIGGESSLHALQPLESEKSFELFTKKIFNFDDNNSWANASPDLVNIGRNIVGRCGGIPLAIVVTAGMLRARERTEHAWNRVLESMGHKVQDGCAKVLALSYNDLPIASRPCFLYFGLYPEDHEIRAFDLINMWIAEKFIVVNSGNRREAEDLAEDVLNDLVSRNLIQLAKRTYNGRISSCRIHVLLHSLCVDLAK

binding [4]: binds
B4: Tm-2^2 NB-ARC (D481V, L242A) (domain or fragment, UniProt Q71BG9 141-492)
chain: VLLDRRRLFLHADETEIIGLDDDFNMLQAKLLNQDLHYGVVSIVGMPGLGKTTLAKKLYRLIRDQFECSGLVYVSQQPRASEILLDIAKQIGLTEQKMKENAEDNLRSLLKIKRYVILLDDIWDVEIWDDLKLVLPECDSKVGSRMIITSRNSNVGRYIGGESSLHALQPLESEKSFELFTKKIFNFDDNNSWANASPDLVNIGRNIVGRCGGIPLAIVVTAGMLRARERTEHAWNRVLESMGHKVQDGCAKVLALSYNDLPIASRPCFLYFGLYPEDHEIRAFDLINMWIAEKFIVVNSGNRREAEDLAEDVLNDLVSRNLIQLAKRTYNGRISSCRIHVLLHSLCVDLAK

binding [5]: binds
B5: Tm-2^2 CC-NB-ARC (D481V, L246A)-Rop (domain or fragment, UniProt Q71BG9 1-492)
chain: MAEILLTSVINKSVEIAGNLLIQEGKRLYWLKEDIDWLQREMRHIRSYVDNAKAKEAGGDSRVKNLLKDIQELAGDVEDLLDDFLPKIQQSNKFNYCLKRSSFADEFAMEIEKIKRRVVDIDRIRKTYNIIDTDNNNDDCVLLDRRRLFLHADETEIIGLDDDFNMLQAKLLNQDLHYGVVSIVGMPGLGKTTLAKKLYRLIRDQFECSGLVYVSQQPRASEILLDIAKQIGLTEQKMKENLEDNARSLLKIKRYVILLDDIWDVEIWDDLKLVLPECDSKVGSRMIITSRNSNVGRYIGGESSLHALQPLESEKSFELFTKKIFNFDDNNSWANASPDLVNIGRNIVGRCGGIPLAIVVTAGMLRARERTEHAWNRVLESMGHKVQDGCAKVLALSYNDLPIASRPCFLYFGLYPEDHEIRAFDLINMWIAEKFIVVNSGNRREAEDLAEDVLNDLVSRNLIQLAKRTYNGRISSCRIHVLLHSLCVDLAK

binding (Tm-2^2 (D481V) (tomato)): binds
B6: Tm-2^2 (D481V) (receptor, UniProt Q71BG9 1-861)
chain: MAEILLTSVINKSVEIAGNLLIQEGKRLYWLKEDIDWLQREMRHIRSYVDNAKAKEAGGDSRVKNLLKDIQELAGDVEDLLDDFLPKIQQSNKFNYCLKRSSFADEFAMEIEKIKRRVVDIDRIRKTYNIIDTDNNNDDCVLLDRRRLFLHADETEIIGLDDDFNMLQAKLLNQDLHYGVVSIVGMPGLGKTTLAKKLYRLIRDQFECSGLVYVSQQPRASEILLDIAKQIGLTEQKMKENLEDNLRSLLKIKRYVILLDDIWDVEIWDDLKLVLPECDSKVGSRMIITSRNSNVGRYIGGESSLHALQPLESEKSFELFTKKIFNFDDNNSWANASPDLVNIGRNIVGRCGGIPLAIVVTAGMLRARERTEHAWNRVLESMGHKVQDGCAKVLALSYNDLPIASRPCFLYFGLYPEDHEIRAFDLINMWIAEKFIVVNSGNRREAEDLAEDVLNDLVSRNLIQLAKRTYNGRISSCRIHVLLHSLCVDLAKESNFFHTAHDAFGDPGNVARLRRITFYSDNVMIEFFRSNPKLEKLRVLFCFAKDPSIFSHMAYFDFKLLHTLVVVMSQSFQAYVTIPSKFGNMTCLRYLRLEGNICGKLPNSIVKLTRLETIDIDRRSLIQPPSGVWESKHLRHLCYRDYGQACNSCFSISSFYPNIYSLHPNNLQTLMWIPDKFFEPRLLHRLINLRKLGILGVSNSTVKMLSIFSPVLKALEVLKLSFSSDPSEQIKLSSYPHIAKLHLNVNRTMALNSQSFPPNLIKLTLAYFSVDRYILAVLKTFPKLRKLKMFICKYNEEKMDLSGEANGYSFPQLEVLHIHSPNGLSEVTCTDDVSMPKLKKLLLTGFHCRISLSERLKKLSK

binding (Tm-2^2 (L242A) (tomato)): binds
B7: Tm-2^2 (L242A) (receptor, UniProt Q71BG9 1-861)
chain: MAEILLTSVINKSVEIAGNLLIQEGKRLYWLKEDIDWLQREMRHIRSYVDNAKAKEAGGDSRVKNLLKDIQELAGDVEDLLDDFLPKIQQSNKFNYCLKRSSFADEFAMEIEKIKRRVVDIDRIRKTYNIIDTDNNNDDCVLLDRRRLFLHADETEIIGLDDDFNMLQAKLLNQDLHYGVVSIVGMPGLGKTTLAKKLYRLIRDQFECSGLVYVSQQPRASEILLDIAKQIGLTEQKMKENAEDNLRSLLKIKRYVILLDDIWDVEIWDDLKLVLPECDSKVGSRMIITSRNSNVGRYIGGESSLHALQPLESEKSFELFTKKIFNFDDNNSWANASPDLVNIGRNIVGRCGGIPLAIVVTAGMLRARERTEHAWNRVLESMGHKVQDGCAKVLALSYNDLPIASRPCFLYFGLYPEDHEIRAFDLINMWIAEKFIVVNSGNRREAEDLAEDVLNDLVSRNLIQLAKRTYNGRISSCRIHDLLHSLCVDLAKESNFFHTAHDAFGDPGNVARLRRITFYSDNVMIEFFRSNPKLEKLRVLFCFAKDPSIFSHMAYFDFKLLHTLVVVMSQSFQAYVTIPSKFGNMTCLRYLRLEGNICGKLPNSIVKLTRLETIDIDRRSLIQPPSGVWESKHLRHLCYRDYGQACNSCFSISSFYPNIYSLHPNNLQTLMWIPDKFFEPRLLHRLINLRKLGILGVSNSTVKMLSIFSPVLKALEVLKLSFSSDPSEQIKLSSYPHIAKLHLNVNRTMALNSQSFPPNLIKLTLAYFSVDRYILAVLKTFPKLRKLKMFICKYNEEKMDLSGEANGYSFPQLEVLHIHSPNGLSEVTCTDDVSMPKLKKLLLTGFHCRISLSERLKKLSK

binding (Tm-2^2 (L233A) (tomato)): binds
B8: Tm-2^2 (L233A) (receptor, UniProt Q71BG9 1-861)
chain: MAEILLTSVINKSVEIAGNLLIQEGKRLYWLKEDIDWLQREMRHIRSYVDNAKAKEAGGDSRVKNLLKDIQELAGDVEDLLDDFLPKIQQSNKFNYCLKRSSFADEFAMEIEKIKRRVVDIDRIRKTYNIIDTDNNNDDCVLLDRRRLFLHADETEIIGLDDDFNMLQAKLLNQDLHYGVVSIVGMPGLGKTTLAKKLYRLIRDQFECSGLVYVSQQPRASEILLDIAKQIGATEQKMKENLEDNLRSLLKIKRYVILLDDIWDVEIWDDLKLVLPECDSKVGSRMIITSRNSNVGRYIGGESSLHALQPLESEKSFELFTKKIFNFDDNNSWANASPDLVNIGRNIVGRCGGIPLAIVVTAGMLRARERTEHAWNRVLESMGHKVQDGCAKVLALSYNDLPIASRPCFLYFGLYPEDHEIRAFDLINMWIAEKFIVVNSGNRREAEDLAEDVLNDLVSRNLIQLAKRTYNGRISSCRIHDLLHSLCVDLAKESNFFHTAHDAFGDPGNVARLRRITFYSDNVMIEFFRSNPKLEKLRVLFCFAKDPSIFSHMAYFDFKLLHTLVVVMSQSFQAYVTIPSKFGNMTCLRYLRLEGNICGKLPNSIVKLTRLETIDIDRRSLIQPPSGVWESKHLRHLCYRDYGQACNSCFSISSFYPNIYSLHPNNLQTLMWIPDKFFEPRLLHRLINLRKLGILGVSNSTVKMLSIFSPVLKALEVLKLSFSSDPSEQIKLSSYPHIAKLHLNVNRTMALNSQSFPPNLIKLTLAYFSVDRYILAVLKTFPKLRKLKMFICKYNEEKMDLSGEANGYSFPQLEVLHIHSPNGLSEVTCTDDVSMPKLKKLLLTGFHCRISLSERLKKLSK

Source: publication PMC7205312
